Reference: a protein production outcome set (Wang et al. 2014)

experiment: label from the status in PepcDB records

**Q.** Which protein production does the source give for “MSSDRDGIRGGWATPGDDQPDAESSVETTGEFTIDYAPPAWYTQNASGDGGQGESEGADPPGGSAGSPPASAPTAPPAPRGPVPPLPGLTPPPHATHHGPSYVPAPAPGAPFTPPPPAPAPGAAFTPPPPPGPGAPFTPPAPPSGGPAGVPKLPVGSGFEPQPSPSQRSAPPEPEPEPEVRTPEPEPKAVAEPAPAADLASPAALPSFPAGGFQLQAPVPPPPAEEPGAAAEPEPEPDREPDTGDLDNGDLESGATMRFSAVALKREIAERAAAEDTAGEGPAAGADEARDTPDEPFVSTGFTDADTDAETDVDTESDFESVSDQAPDAESGGGHGDVADPRLGGSAPDAEPEPEPESEPVVLAAVAESESESAERVGDEPEDSVPTADVPVDAVPDDAAPPADSVPQDAVPQDATPPAPEGMPPLPPSYPPVAPAAAHQWPAQPQPPTQPQTAPAPPEQPGVAAQQPPFQPQAPQPAPAGWDAPPAPQPGYGFPQPGAQAPQPQPHSPAQPPGGYGFPQAPQAPHGPSPQQQPYPGVPQQQAPQAQGGGQAPPAQPGQPAQPGQPMQPGQPGQSGQPGQAPSAPQAAPHPPQAPPAQQPEYQPQAQQPQPQPQPQPYQQPADPRLGAAWPQPMQHDQRQATNPGAAPLGYTAAVELSSDRLVNNKRQKAKSSRPAAGGSRFKLGGKKEEAERQRKLDLIRTPVLSCYRIAVISLKGGVGKTTTTTALGSTLATERQDKILAIDANPDAGTLGRRVRRETGATIRDLVQAIPYLNSYMDIRRFTSQASSGLEIIANDVDPAVSTTFNDEDYRRAIDVLGQQYPIILTDSGTGLLYSAMRGVLDLADQLIIISTPSVDGASSASTTLDWLSAHGYADLVSRSITVISGVRETGKMIKVDDIVGHFQTRCRGVVVVPFDEHLSAGAEVDLDMMRPKVREAYFNLAAMVAEDFVRHQQSHGLWTSDGNPPPVAAPPMPGQQTPGQQMPGQPMPGQPMPGQQMPPQQGQPMPPQPGQPVPGQPYPPQPAPGQQQPYPQPGYNQPYAQPGYGYPQPGQPGHPGQPQQQPQQQQQPQQGQTPPPPPPQQ” here?
**A.** failed

**Q.** Which protein production does the source give for “MSYSTIISNTSFLSLASKFTTRGSRLQCTVSMARSAVDETSDSGAFQRTASTFRNFVSKDSNSQFPAESGRYHLYISYACPWASRCLSYLKIKGLDDAISFSSVKPIWGRTKETDEHMGWVFPGSDTEVPGADPDHLNGAKSVRELYEIASPNYTGKYTVPVLWDKKLKTVVNNESAEIIRMFNTEFNHIAGNPDLDLYPSHLQAKIDETNEWIYNGINNGVYRCGFAKKQGPYEEAVEQVYEALDRCEEILGKHRYICGNTLTETDIRLFVTLIRFDEVSSYFQSKKKKYTICERISNVETLIQVYAVHFKCNKKLIREYPNLFNYTKDIFQIPGMSSTVNMNHIKQHYYGSHPSINPFGIIPHGPNIDYTSPHDRHRFSK” here?
**A.** failed

**Q.** Which protein production does the source give for “MTDRLPVTVLSGFLGAGKSTLLNHILRNRDHLRVAVIVNDMSEINIDGSEVQRDVSLNRAEEKLVEMSNGCICCTLREDLLEEVGKLARDGRFDYLLIESTGISEPLPVAETFTFRDESGQSLADIARLDTMVTVVDGMNFLLDYQAAHSLASRGETLGEDDERSISDLLIEQVEFADVILVSKIDLISSDQRQELLAILKSLNAQAEIVPMVMGQVPLAKILDTGRFDFERAAQAPGWLRELRGEHVPETEEYGIASTAYRARRPFHPQRFFDFINRPWVNGKLLRSKGFFWLASKYQEAGSWSQAGGLMRHGFAGRWWRFVPKQHWPQDEEGTAAIMHNWTAATGDCRQELVFIGQNIDFTRLCAELDLCLLDDDEMALGVEGWSLLNDPFGPWHDEEAALEHHHHHH” here?
**A.** not failed

**Q.** With “MTPFSYHKPASISEAVSLADASSHFIAGGTNLVDLMKENVVRPKRLIDISGLGLNGIHPTLNGGLLIGALVSNADLAWHPMIEQHYPLLSDAILAGASPQLRNMASTGGNLLQRTRCYYFYDTGTPCNKREPGSGCPARTGSNRIHAILGASDACVATHPSDMCVALAALEAVVHVQGPRGERQIPFAAFHRLPEDTPERDNQLAIDELVVAIELPPPVFEKHYRYLKIRDRASYAFALVSVAAALSFDGQVIRQARLALGGVAHKPWRDPVVERMLAGQAPCEALFTRAAKTLLQGAKPLSHNGFKVTLAQRAIVRALDDAARGAADGGPRP” as the sequence, how does the protein production read?
**A.** failed

**Q.** With “MTVPVGATIHVGDSFVPMAEVLAIDKEDGDLTSKIKVDGEVDTTKAGTYVLTYTVTDSKGHEVTAKQTVTVKVRLEHHHHHH” as the sequence, how does the protein production read?
**A.** not failed

**Q.** For “MVFQAPGVEGQNQEAMGGRDSQTEICPHQVMKRVRTEQVQVAVSCYLKRRQYVDSEGPLKQGLRLSQTPEEMAANLTVQSESGCANAVSAAPCQAEPQQYEVQFGRLRNFLTDSDSQYSHEVMPLLYPLFVYLHLNLVQSGPKSTVESFYSRFHGMFLQNASQKDIIEQLQTTQTIQDILSNFQLRAFLDNKYVVRLQEDSYNYLIRYLQSDNNTALCKVLAVHIHLDVQPAKRTDYQLYASGGSSRSESSSLEPPDVPNPILQNEAALEVLQESIKRVKDGPPSLTTMCFYAFYNTEQLLNTAEISSDSKLLAPGFDNSWIKLWSLRSKKLKSEPHRVDTSRVRLACDTLEEEESEDDDVGTEMKILRGHCGPVYSTRFLADSSGLLSCSEDMSIRYWDLESFTNTVLYQGHAYPVWDVDISPYILYFASGSHDRTARLWSFDRTYPLRIYAGHLADVDCVKFHPNSNYLATGSTDKTVRLWSAQQGNSVRLFTGHRGPVLSLSFSPNGKYLASAGEDQWLKLWDLASGTLLKNXEATRTASPVWPLARTAVXLLLPPWRTLYASGTSEARAATHQLTALLGSLWACTLGRXATSXVYSSWPATSSXXLESHKRIKNI”, which protein production is on record?
**A.** failed

**Q.** With “RINNVTVKELFEAIQDTVQGLRDDSEDEDDPLYADADAEIEARSRGEKLHRPQPRREKPRPAPERRRMSAPLVDDVDEDVVSRPLFDDPSTAQSQKSSVETQRAARDVSETDEFPAVDEPTVVVPRKPSAPRMSLPQTPVTDVEAAADVVAAGRKAVQDAVKARESHNVGAALAPSTPAQPYEAPESHYAVPSTQLLIPGKEAKTHSEANDRMIEAISDVFAEFKVDAHVTGFSRGPTVTRYEVELGPGVKVSKITNLQSNLAYAVATDNVRLLTPIPGKSAVGIEVPNTDREMVRLGDVLNSESVHSDHDPMLIGLGKDIEGDFVAHSVQKMPHLLVAGSTGSGKSAFVNSLLVSLLTRATPEDVRLILVDPKMVELTPYEGIPHLITPIITQPKKAAAALQWLVEEMEQRYMDMKSTRVRHIKDFNRKVKSGEIQAPLGSQREYHPYPYIVCVVDELADLMMTAPKEIEDSIVRITQKARAAGIHLVLATQRPSVDVVTGLIKTNVPSRLAFATSSLTDSRVILDQAGAEKLIGMGDGLFIPQGGRPQRIQGAFVTDEEIQAVVDAAKAQGEPNYTEGVTEDKAAEAKKDIDADIGNDLEDLLQAVELVVTAQLGSTSMLQRKLRIGFAKAGRLMDLMETRGIVGPSEGSKAREVLVKPEELETTLWMIKGAKPEDAPKEDDWQSADSGVSDASDPSHGERAAYNPSSNAF” as the sequence, how does the protein production read?
**A.** failed

**Q.** With “TITKVAVGSDESKWGLKALEIAAAFADSWGAELDVISAVPNMKGSEDEGVMASFQEDLDVRIKPLEAAYPSLKINKQIVPGPAAGALTKASYDHDVVVVGSRGRGGFTGLLLGSTSQGLLQHAVGPVYVVPRKYVEA” as the sequence, how does the protein production read?
**A.** failed

**Q.** Which protein production does the source give for “TMASGAPSFPFSRASGPEPPAEFAKLRATNPVSQVKLFDGSLAWLVTKHKDVCFVATSEKLSKVRTRQGFPELSASGKQAAKAKPTFVDMDPPEHMHQRSMVEPTFTPEAVKNLQPYIQRTVDDLLEQMKQKGCANGPVDLVKEFALPVPSYIIYTLLGVPFNDLEYLTQQNAIRTNGSSTAREASAANQELLDYLAILVEQRLVEPKDDIISKLCTEQVKPGNIDKSDAVQIAFLLLVAGNATMVNMIALGVATLAQHPDQLAQLKANPSLAPQFVEELCRYHTASALAIKRTAKEDVMIGDKLVRANEGIIASNQSANRDEEVFENPDEFNMNRKWPPQDPLGFGFGDHRCIAEHLAKAELTTVFSTLYQKFPDLKVAVPLGKINYTPLNRDVGIVDLPVIF” here?
**A.** not failed
